Experimental data taken from patent US10954222B2, “Benzothiophene compound, alternative autophagy-inducing agent and anticancer agent including the compound as active ingredient, and method for screening for compound having anticancer activity” (National University Corporation Tokyo Medical and Dental …, priority 2012, dated 2021).
Some of these results come from one statement about several compounds together.

Assays:
Lamp1-GFP/ATG5-KO MEFs = assay: Evaluation of activity to induce alternative autophagy (fluorescent bright spots due to aggregation of Lamp1-GFP); assay type: cell-based, mouse; conditions: Example 13, same method as Example 1
Procedure: First, by using a retrovirus, a gene for expression of a Lamp1-GFP fusion protein (also referred to as “Lamp1-GFP”) was introduced into ATG5-deficient mouse embryonic fibroblasts (also referred to as “ATG5-KO MEFs”). Then, a cell with high expression of Lamp1-GFP was cloned and prepared as Lamp1-GFP/ATG5-KO MEFs.
The ATG5-KO MEFs were prepared by introducing a gene for expression of SV40T antigen into MEFs established from an ATG5-deficient C57/B6J mouse at a fetal age of 14.5 days by an electroporation method using an Nucleofector system (manufactured by amaxa) for immortalization. In addition, the retrovirus was prepared by introducing an MSCV-Lamp1-GFP (zeocin resistant) vector into plat E cells, which were retrovirus packaging cells.
To the Lamp1-GFP/ATG5-KO MEFs seeded at 1×10^4/96 wells on the preceding day, each of the test compounds was added at a final concentration of 50 μM, and the Lamp1-GFP/ATG5-KO MEFs were cultured at 37° C. under 10% CO2 for 5 hours.
Then, for observation, Hoechst 33342 (manufactured by invitrogen) was added at a final concentration of 1 ng/ml to each culture liquid, followed by incubation for 5 minutes. Then, the culture liquid was replaced with 100 μl of HBSS. Subsequently, five visual fields per well were photographed at random with IN CELL ANALYZER 1000 (manufactured by GE Healthcare).
Then, the thus obtained novel benzothiophene compounds (TMD-459 and TMD-460) were evaluated for the ability to induce alternative autophagy by the same method as that described in Example 1. Note that, in Example 10, each of the compounds was added to culture liquids at final concentrations of 10, 20, 30, 40, and 50 μM. In addition, compound #9 was also added as a reference example to culture liquids at the above-described concentrations. Then, 5 hours after the addition of each of these compounds, five visual fields per each well were photographed at random with IN CELL ANALYZER 1000, and the presence or absence of fluorescent bright spots due to the aggregation of Lamp1-GFP was visually determined.

[1] = system: mouse tumor cell line 53T; assay: Evaluation of in vitro anticancer activity (Cell titer blue, cell death induction rate); assay type: cell-based; conditions: final concentration of 50 μM for 24 hours
Procedure: First, the mouse tumor cell line 53T was seeded at 2×10^4/well on 96 well plates. Then, on the following day, each of compounds #09 and #13 dissolved in DMSO was added at a final concentration of 1, 5, 10, 20, or 50 μM. In addition, a negative control to which only DMSO was added was prepared. Subsequently, the cells were cultured at 37° C. under 10% CO2 for 24 hours. Then, by using Cell titer blue (CTB) (manufactured by Promega) according to the attached protocol, the amount of the fluorescence of each well of the cells 10 minutes after the addition of the CTB reagent was measured as a CTB measurement value of the cells brought into contact with compound #09 or #13. On the basis of such measurement values, the cell death induction rate of each of compounds #09 and #13 was calculated according to the following formula. Cell death induction rate=(CTB measurement value of negative control−CTB measurement value of cells to which compound was added)/CTB measurement value of negative control

## CCOC(=O)c1c(NC(C)=O)sc2c(OCCN(CC)CC)c(-c3ccsc3)ccc12 [TMD-520, Ethyl 2-acetylamino-7-[2-(N,N-diethylamino)ethyloxy]-6-(3-thienyl)benzo[b]thiophene-3-carboxylate]
Lamp1-GFP/ATG5-KO MEFs
  ability to induce alternative autophagy (FIG. 18): had ability to induce alternative autophagy

## CCOC(=O)c1c(NC(C)=O)sc2c(OCCN(CC)CC)c(-c3cccs3)ccc12 [TMD-519, Ethyl 2-acetylamino-7-[2-(N,N-diethylamino)ethyloxy]-6-(2-thienyl)benzo[b]thiophene-3-carboxylate]
Lamp1-GFP/ATG5-KO MEFs
  ability to induce alternative autophagy (FIG. 18): had ability to induce alternative autophagy

## CCOC(=O)c1c(NC(C)=O)sc2c(OCCN(CC)CC)c(-c3ccc(N(C)C)cc3)ccc12 [TMD-513, Ethyl 2-Acetylamino-7-[2-(N,N-diethylamino)ethyloxy]-6-(4-dimethylaminophenyl)benzo[b]thiophene-3-carboxylate]
Lamp1-GFP/ATG5-KO MEFs
  ability to induce alternative autophagy (FIG. 18): had ability to induce alternative autophagy

## CCOC(=O)c1c(NC(C)=O)sc2c(OCCN(CC)CC)c(-c3cccc(C)c3)ccc12 [TMD-516, Ethyl 2-Acetylamino-7-[2-(N,N-diethylamino)ethyloxy]-6-(3-methylphenyl)benzo[b]thiophene-3-carboxylate]
Lamp1-GFP/ATG5-KO MEFs
  ability to induce alternative autophagy (FIG. 18): had ability to induce alternative autophagy

## CCOC(=O)c1c(NC(C)=O)sc2c(OCCN(CC)CC)c(-c3ccc(C(F)(F)F)cc3)ccc12 [TMD-515, Ethyl 2-acetylamino-7-[2-(N,N-diethylamino)ethyloxy]-6-(4-trifluoromethylphenyl)benzo[b]thiophene-3-carboxylate]
Lamp1-GFP/ATG5-KO MEFs
  ability to induce alternative autophagy (FIG. 18): had ability to induce alternative autophagy

## CCOC(=O)c1c(NC(C)=O)sc2c(OCCN(CC)CC)c(-c3ccc(F)cc3)ccc12 [TMD-514, Ethyl 2-acetylamino-7-[2-(N,N-diethylamino)ethyloxy]-6-(4-fluorophenyl)benzo[b]thiophene-3-carboxylate]
Lamp1-GFP/ATG5-KO MEFs
  ability to induce alternative autophagy (FIG. 18): had ability to induce alternative autophagy

## CCOC(=O)c1c(NC(C)=O)sc2c(OCCN(CC)CC)c(-c3cc(CN=[N+]=[N-])cc(N=[N+]=[N-])c3)ccc12 [TMD-473, Ethyl 2-Acetylamino-7-[2-(N,N-diethylamino)ethyloxy]-6-(3-azido-5-azidomethylphenyl)benzo[b]thiophene-3-carboxylate]
Lamp1-GFP/ATG5-KO MEFs
  ability to induce alternative autophagy (FIG. 18): had ability to induce alternative autophagy

## N=C(Nc1ccc2c(c1)OCCO2)Nc1nc(-c2cccs2)cc(C(F)(F)F)n1 [compound 13]
[1]
  induced cell death of the cells of the tumor cell line: ≥ 90%

## CCOC(=O)c1c(NC(C)=O)sc2c(OCCN(CC)CC)c(-c3ccncc3)ccc12 [TMD-518, Ethyl 2-acetylamino-7-[2-(N,N-diethylamino)ethyloxy]-6-(4-pyridyl)benzo[b]thiophene-3-carboxylate]
Lamp1-GFP/ATG5-KO MEFs
  ability to induce alternative autophagy (FIG. 18): had ability to induce alternative autophagy

## CCOC(=O)c1c(N)sc2c(OCCN(CC)CC)c(-c3ccc(OC)cc3)ccc12 [TMD-593, Ethyl 2-amino-7-[2-(N,N-diethylamino)ethyloxy]-6-(4-methoxyphenyl)benzo[b]thiophene-3-carboxylate]
Lamp1-GFP/ATG5-KO MEFs
  ability to induce alternative autophagy (FIG. 18): had ability to induce alternative autophagy

## CCOC(=O)c1c(N)sc2c(OCCN(CC)CC)c(-c3ccc(O)cc3)ccc12 [TMD-594, Ethyl 2-amino-7-[2-(N,N-diethylamino)ethyloxy]-6-(4-hydroxyphenyl)benzo[b]thiophene-3-carboxylate]
Lamp1-GFP/ATG5-KO MEFs
  ability to induce alternative autophagy (FIG. 18): had ability to induce alternative autophagy

## CCOC(=O)c1c(NC(C)=O)sc2c(OCCN(CC)CC)c(-c3ccc(OC)cc3)ccc12 [TMD-511, Ethyl 2-acetylamino-7-[2-(N,N-diethylamino)ethyloxy]-6-(4-methoxyphenyl)benzo[b]thiophene-3-carboxylate]
Lamp1-GFP/ATG5-KO MEFs
  ability to induce alternative autophagy (FIG. 18): had ability to induce alternative autophagy

## CCOC(=O)c1c(NC(C)=O)sc2c(OCCN(CC)CC)c(-c3ccc(O)cc3)ccc12 [TMD-512, Ethyl 2-acetylamino-7-[2-(N,N-diethylamino)ethyloxy]-6-(4-hydroxyphenyl)benzo[b]thiophene-3-carboxylate]
Lamp1-GFP/ATG5-KO MEFs
  ability to induce alternative autophagy (FIG. 18): had ability to induce alternative autophagy

## CCOC(=O)c1c(NC(C)=O)sc2c(OCCN(CC)CC)c(-c3ccccc3SC)ccc12 [TMD-517, Ethyl 2-acetylamino-7-[2-(N,N-diethylamino)ethyloxy]-6-(2-methylthiophenyl)benzo[b]thiophene-3-carboxylate]
Lamp1-GFP/ATG5-KO MEFs
  ability to induce alternative autophagy (FIG. 18): had ability to induce alternative autophagy
